Data as given in PubChem BioAssay AID1259308 (NCATS, 2017).
Screen: 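Knock-downs that increase output of a recombinant reporter protein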 (primary screen). Cell system: human HEK293 embryonic kidney cells stably expressing firefly luciferase (HEK-CMV-Luc2-Hygro). Knock-down reagent: single siRNA against human genes, 0.8 pmol siRNA per well. Timing: 72 h. Read-out: 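Reporter luminescence and viable-cell signal on separate replicate plates, given as percent of non-targeting control and median/MAD z-scores, plus per-cell luciferase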. Reading the numbers: total luciferase, z-score and total luciferase, % of control: higher = more reporter protein produced. Active means: 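Active when the median/MAD z-score for overall luciferase is greater than 3; a gene was taken forward for validation with new siRNAs if at least two of its three siRNAs passed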. Meaning of the calls: active = raised luciferase; inactive = no rise.
Here is a random part of about 59,000 deposited reagents. In the full data, about 1,510 (2.6%) got an active call. 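Calls use total luciferase alone and ignore viability, so some active siRNAs may act by altering cell number.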 Reagents against one gene are numbered here. Not all columns of the deposit are shown. No sequences are given here.

SMPD4 (sphingomyelin phosphodiesterase 4) #1 | total luciferase, z-score: -0.0361; total luciferase, % of control: 81.2; Call: inactive
SMPD4 (sphingomyelin phosphodiesterase 4) #2 | total luciferase, z-score: 2.89; total luciferase, % of control: 139; Call: inactive
SMPD4 (sphingomyelin phosphodiesterase 4) #3 | total luciferase, z-score: -0.668; total luciferase, % of control: 68.6; Call: inactive
FCGR1BP (Fc gamma receptor Ib, pseudogene) #1 | total luciferase, z-score: 0.158; total luciferase, % of control: 85; Call: inactive
FCGR1BP (Fc gamma receptor Ib, pseudogene) #2 | total luciferase, z-score: 0.801; total luciferase, % of control: 97.8; Call: inactive
FCGR1BP (Fc gamma receptor Ib, pseudogene) #3 | total luciferase, z-score: 1.33; total luciferase, % of control: 108; Call: inactive
TRIM2 (tripartite motif containing 2) #1 | total luciferase, z-score: -0.183; total luciferase, % of control: 78.2; Call: inactive
TRIM2 (tripartite motif containing 2) #2 | total luciferase, z-score: -0.242; total luciferase, % of control: 77.1; Call: inactive
TRIM2 (tripartite motif containing 2) #3 | total luciferase, z-score: 0.00771; total luciferase, % of control: 82; Call: inactive
WBP11P3 (WBP11 pseudogene 3) #1 | total luciferase, z-score: 1.26; total luciferase, % of control: 107; Call: inactive
WBP11P3 (WBP11 pseudogene 3) #2 | total luciferase, z-score: 2.62; total luciferase, % of control: 134; Call: inactive
WBP11P3 (WBP11 pseudogene 3) #3 | total luciferase, z-score: 1.43; total luciferase, % of control: 110; Call: inactive
MRM2 (mitochondrial rRNA methyltransferase 2) #1 | total luciferase, z-score: 0.0445; total luciferase, % of control: 82.8; Call: inactive
MRM2 (mitochondrial rRNA methyltransferase 2) #2 | total luciferase, z-score: 2.81; total luciferase, % of control: 138; Call: inactive
MRM2 (mitochondrial rRNA methyltransferase 2) #3 | total luciferase, z-score: 0.516; total luciferase, % of control: 92.1; Call: inactive
RHOF (ras homolog family member F, filopodia associated) #1 | total luciferase, z-score: 0.513; total luciferase, % of control: 92.1; Call: inactive
RHOF (ras homolog family member F, filopodia associated) #2 | total luciferase, z-score: 1.6; total luciferase, % of control: 114; Call: inactive
RHOF (ras homolog family member F, filopodia associated) #3 | total luciferase, z-score: 0.0988; total luciferase, % of control: 83.9; Call: inactive
ISOC1 (isochorismatase domain containing 1) #1 | total luciferase, z-score: 6.93; total luciferase, % of control: 220; Call: active
ISOC1 (isochorismatase domain containing 1) #2 | total luciferase, z-score: -0.535; total luciferase, % of control: 71.2; Call: inactive
ISOC1 (isochorismatase domain containing 1) #3 | total luciferase, z-score: -0.846; total luciferase, % of control: 65.1; Call: inactive
SIAH2 (siah E3 ubiquitin protein ligase 2) #1 | total luciferase, z-score: 1.91; total luciferase, % of control: 120; Call: inactive
SIAH2 (siah E3 ubiquitin protein ligase 2) #2 | total luciferase, z-score: 0.76; total luciferase, % of control: 97; Call: inactive
SIAH2 (siah E3 ubiquitin protein ligase 2) #3 | total luciferase, z-score: 2.74; total luciferase, % of control: 136; Call: inactive
TTC23L (tetratricopeptide repeat domain 23 like) #1 | total luciferase, z-score: -0.344; total luciferase, % of control: 75; Call: inactive
TTC23L (tetratricopeptide repeat domain 23 like) #2 | total luciferase, z-score: 0.664; total luciferase, % of control: 95.1; Call: inactive
TTC23L (tetratricopeptide repeat domain 23 like) #3 | total luciferase, z-score: -0.488; total luciferase, % of control: 72.2; Call: inactive
ABRAXAS2 (abraxas 2, BRISC complex subunit) #1 | total luciferase, z-score: 0.193; total luciferase, % of control: 85.7; Call: inactive
ABRAXAS2 (abraxas 2, BRISC complex subunit) #2 | total luciferase, z-score: -0.804; total luciferase, % of control: 65.9; Call: inactive
ABRAXAS2 (abraxas 2, BRISC complex subunit) #3 | total luciferase, z-score: -0.242; total luciferase, % of control: 77.1; Call: inactive
C19orf18 (chromosome 19 open reading frame 18) #1 | total luciferase, z-score: -0.195; total luciferase, % of control: 78; Call: inactive
C19orf18 (chromosome 19 open reading frame 18) #2 | total luciferase, z-score: -0.664; total luciferase, % of control: 68.7; Call: inactive
C19orf18 (chromosome 19 open reading frame 18) #3 | total luciferase, z-score: 0.0932; total luciferase, % of control: 83.7; Call: inactive
PITPNB (phosphatidylinositol transfer protein beta) #1 | total luciferase, z-score: -0.399; total luciferase, % of control: 74; Call: inactive
PITPNB (phosphatidylinositol transfer protein beta) #2 | total luciferase, z-score: -0.855; total luciferase, % of control: 64.9; Call: inactive
PITPNB (phosphatidylinositol transfer protein beta) #3 | total luciferase, z-score: -0.757; total luciferase, % of control: 66.8; Call: inactive
FAM110C (family with sequence similarity 110 member C) #1 | total luciferase, z-score: 1.2; total luciferase, % of control: 106; Call: inactive
FAM110C (family with sequence similarity 110 member C) #2 | total luciferase, z-score: -1.16; total luciferase, % of control: 58.8; Call: inactive
FAM110C (family with sequence similarity 110 member C) #3 | total luciferase, z-score: -0.676; total luciferase, % of control: 68.4; Call: inactive
PCDHA3 (protocadherin alpha 3) #1 | total luciferase, z-score: -0.267; total luciferase, % of control: 76.6; Call: inactive
PCDHA3 (protocadherin alpha 3) #2 | total luciferase, z-score: -0.154; total luciferase, % of control: 78.8; Call: inactive
PCDHA3 (protocadherin alpha 3) #3 | total luciferase, z-score: -1.52; total luciferase, % of control: 51.6; Call: inactive

Active calls, of those listed so far:
ISOC1 (isochorismatase domain containing 1) #1 | total luciferase, z-score: 6.93; total luciferase, % of control: 220; Call: active
